Results: paper PMC6294004
These are yes or no findings as the source states them, for the method shown. In cells and extracts the contact can be indirect. For some of these results: Binding can be weak; no strength is given. For some of these results: Where a sequence is shown, tags or fusion partners need not be part of it. One block for each binder: values may come before it.

Columns and labels:
Assay in all cases: pull-down; GST or GST fusion protein on glutathione Sepharose 4B beads; pull-down buffer 20 mM Tris pH 7.5, 150 mM NaCl, 0.5 M EDTA, 10% glycerol, 0.1% Triton X100, 1 mM DTT; blot with anti-GST or anti-MBP; proteins from E. coli, bacterial lysates prepared; 'purified recombinant GST-fusion proteins' said for Fig. 7a
[1] = biological target: GST-Klp64D (Drosophila)
[2] = biological target: GST-IFT144 (Drosophila)
[3] = biological target: GST-IFT140 (Drosophila)

binding [1]: no binding
binding [2]: no binding
binding [3]: binds
B1: Arm34-87 (domain or fragment, UniProt P18824 34-87)
chain: MWQQNSYLGDSGIHSGAVTQVPSLSGKEDEEMEGDPLMFDLDTGFPQNFTQDQV

binding [3]: no binding
B2: MBP-Klp61F (protein, UniProt P46863 1-1066)
chain: MDISGGNTSRQPQKKSNQNIQVYVRVRPLNSRERCIRSAEVVDVVGPREVVTRHTLDSKLTKKFTFDRSFGPESKQCDVYSVVVSPLIEEVLNGYNCTVFAYGQTGTGKTHTMVGNETAELKSSWEDDSDIGIIPRALSHLFDELRMMEVEYTMRISYLELYNEELCDLLSTDDTTKIRIFDDSTKKGSVIIQGLEEIPVHSKDDVYKLLEKGKERRKTATTLMNAQSSRSHTVFSIVVHIRENGIEGEDMLKIGKLNLVDLAGSENVSKAGNEKGIRVRETVNINQSLLTLGRVITALVDRAPHVPYRESKLTRLLQESLGGRTKTSIIATISPGHKDIEETLSTLEYAHRAKNIQNKPEVNQKLTKKTVLKEYTEEIDKLKRDLMAARDKNGIYLAEETYGEITLKLESQNRELNEKMLLLKALKDELQNKEKIFSEVSMSLVEKTQELKKTEENLLNTKGTLLLTKKVLTKTKRRYKEKKELVASHMKTEQVLTTQAQEILAAADLATDDTHQLHGTIERRRELDEKIRRSCDQFKDRMQDNLEMIGGSLNLYQDQQAALKEQLSQEMVNSSYVSQRLALNSSKSIEMLKEMCAQSLQDQTNLHNKLIGEVMKISDQHSQAFVAKLMEQMQQQQLLMSKEIQTNLQVIEENNQRHKAMLDSMQEKFATIIDSSLQSVEEHAKQMHKKLEQLGAMSLPDAEELQNLQEELANERALAQQEDALLESMMMQMEQIKNLRSKNSISMSVHLNKMEESRLTRNHRIDDIKSGIQDYQKLGIEASQSAQAELTSQMEAGMLCLDQGVANCSMLQVHMKNLNQKYEKETNENVGSVRVHHNQVEIICQESKQQLEAVQEKTEVNLEQMVDARQQLITEDRQRFIGHATVATDLVQESNRQFSEHAEHQRQQLQICEQELVRFQQSELKTYAPTGTTPSKRDFVYPRTLVATSPHQEIVRRYRQELDWSDLDTTATIDECSEGEHDVSMHSVQELSETETIMNSTPIEPVDGVTVKRGCGTTRNSNSNALKPPVATGGKRSSSLSRSLTPSKTSPRGSPAFVRHNKENVA
